This is an account of results in paper PMC8844116.

By UniProt entry, the sequences of proteins in these tests, tags left out. Residues count along the entry.
UniProt Q15109, residues 23-404: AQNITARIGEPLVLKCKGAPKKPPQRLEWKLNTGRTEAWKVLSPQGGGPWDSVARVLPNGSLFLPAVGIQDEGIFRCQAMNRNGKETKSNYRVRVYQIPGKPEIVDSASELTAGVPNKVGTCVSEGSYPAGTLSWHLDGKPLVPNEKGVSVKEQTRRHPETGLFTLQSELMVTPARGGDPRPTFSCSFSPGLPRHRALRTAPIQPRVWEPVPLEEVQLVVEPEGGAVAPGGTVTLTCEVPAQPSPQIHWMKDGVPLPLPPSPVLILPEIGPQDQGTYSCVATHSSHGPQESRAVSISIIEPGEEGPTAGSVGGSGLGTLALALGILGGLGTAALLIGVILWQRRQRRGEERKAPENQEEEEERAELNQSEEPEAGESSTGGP
UniProt Q62151, residues 23-402: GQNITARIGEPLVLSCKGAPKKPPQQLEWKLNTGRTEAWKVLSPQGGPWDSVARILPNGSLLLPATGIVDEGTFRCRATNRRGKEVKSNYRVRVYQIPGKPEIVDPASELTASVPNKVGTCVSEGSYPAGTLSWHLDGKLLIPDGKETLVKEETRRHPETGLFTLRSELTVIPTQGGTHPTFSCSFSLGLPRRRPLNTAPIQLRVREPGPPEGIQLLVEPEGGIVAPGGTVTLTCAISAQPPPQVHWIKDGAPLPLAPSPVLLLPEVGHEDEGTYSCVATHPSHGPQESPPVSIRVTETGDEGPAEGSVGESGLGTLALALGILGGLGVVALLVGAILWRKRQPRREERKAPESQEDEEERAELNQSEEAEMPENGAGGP
UniProt Q9BSQ5: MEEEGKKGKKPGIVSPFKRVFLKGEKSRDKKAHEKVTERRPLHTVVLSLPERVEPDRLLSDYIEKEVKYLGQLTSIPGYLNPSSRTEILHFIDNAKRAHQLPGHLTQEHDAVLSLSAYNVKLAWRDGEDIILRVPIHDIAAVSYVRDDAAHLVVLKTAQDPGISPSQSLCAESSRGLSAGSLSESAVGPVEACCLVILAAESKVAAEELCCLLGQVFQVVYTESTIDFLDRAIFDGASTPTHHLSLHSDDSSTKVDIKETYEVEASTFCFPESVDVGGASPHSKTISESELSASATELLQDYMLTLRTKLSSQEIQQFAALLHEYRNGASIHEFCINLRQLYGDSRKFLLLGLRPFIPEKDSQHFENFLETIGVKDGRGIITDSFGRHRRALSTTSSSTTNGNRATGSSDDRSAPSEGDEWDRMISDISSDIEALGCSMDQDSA
UniProt Q8K2Y9: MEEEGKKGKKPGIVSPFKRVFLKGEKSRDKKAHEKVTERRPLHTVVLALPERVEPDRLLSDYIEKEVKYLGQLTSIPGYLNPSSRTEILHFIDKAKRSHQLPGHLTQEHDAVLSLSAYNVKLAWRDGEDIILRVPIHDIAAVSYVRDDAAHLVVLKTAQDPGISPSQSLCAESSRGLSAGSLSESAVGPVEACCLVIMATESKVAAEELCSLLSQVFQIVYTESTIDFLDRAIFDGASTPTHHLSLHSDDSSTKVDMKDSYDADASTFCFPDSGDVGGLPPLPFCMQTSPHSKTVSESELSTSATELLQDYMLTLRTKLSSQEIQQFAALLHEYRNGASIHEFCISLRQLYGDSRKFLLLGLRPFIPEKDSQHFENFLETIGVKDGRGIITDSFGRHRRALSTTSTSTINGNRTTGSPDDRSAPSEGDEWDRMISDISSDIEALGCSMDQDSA

Assay [1] deals with T1, MEKK3, endogenous in HEK-293T cells (human (endogenous in HEK-293T)) (UniProt Q99759).
T1 sequence: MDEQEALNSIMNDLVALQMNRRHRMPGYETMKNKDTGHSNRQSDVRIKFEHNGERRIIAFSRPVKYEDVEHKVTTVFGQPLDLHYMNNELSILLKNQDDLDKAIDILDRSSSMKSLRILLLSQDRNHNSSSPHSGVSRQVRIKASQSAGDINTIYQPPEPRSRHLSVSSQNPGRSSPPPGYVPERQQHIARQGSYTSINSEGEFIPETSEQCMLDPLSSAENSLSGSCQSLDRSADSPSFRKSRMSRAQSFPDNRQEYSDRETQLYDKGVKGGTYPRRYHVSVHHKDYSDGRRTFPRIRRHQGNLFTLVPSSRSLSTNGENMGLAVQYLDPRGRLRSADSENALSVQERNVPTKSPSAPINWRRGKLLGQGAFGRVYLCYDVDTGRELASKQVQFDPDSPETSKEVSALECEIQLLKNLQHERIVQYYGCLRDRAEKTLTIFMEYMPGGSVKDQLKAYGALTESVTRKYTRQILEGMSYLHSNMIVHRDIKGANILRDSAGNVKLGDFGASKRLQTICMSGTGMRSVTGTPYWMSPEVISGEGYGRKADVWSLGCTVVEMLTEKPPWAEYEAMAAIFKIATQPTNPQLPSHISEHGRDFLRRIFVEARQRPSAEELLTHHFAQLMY
The assay can be described thus: co-IP; endogenous proteins of HEK-293T cells; groups: normal glucose 25 mM, high glucose 80 mM for 24 h, high glucose with DMSO, mannitol control; immunoprecipitation buffer 50 mM HEPES pH 7.1, 150 mM NaCl, 1% Triton X-100, 0.5% NP-40; protein A/G-agarose, 4°C; immunoblot. (In general: A western blot detects proteins with antibodies after separation by electrophoresis.)

In assay [2] the target is T2, MEKK3, endogenous in mouse hippocampus (mouse (endogenous in hippocampus)) (UniProt Q61084).
T2 sequence: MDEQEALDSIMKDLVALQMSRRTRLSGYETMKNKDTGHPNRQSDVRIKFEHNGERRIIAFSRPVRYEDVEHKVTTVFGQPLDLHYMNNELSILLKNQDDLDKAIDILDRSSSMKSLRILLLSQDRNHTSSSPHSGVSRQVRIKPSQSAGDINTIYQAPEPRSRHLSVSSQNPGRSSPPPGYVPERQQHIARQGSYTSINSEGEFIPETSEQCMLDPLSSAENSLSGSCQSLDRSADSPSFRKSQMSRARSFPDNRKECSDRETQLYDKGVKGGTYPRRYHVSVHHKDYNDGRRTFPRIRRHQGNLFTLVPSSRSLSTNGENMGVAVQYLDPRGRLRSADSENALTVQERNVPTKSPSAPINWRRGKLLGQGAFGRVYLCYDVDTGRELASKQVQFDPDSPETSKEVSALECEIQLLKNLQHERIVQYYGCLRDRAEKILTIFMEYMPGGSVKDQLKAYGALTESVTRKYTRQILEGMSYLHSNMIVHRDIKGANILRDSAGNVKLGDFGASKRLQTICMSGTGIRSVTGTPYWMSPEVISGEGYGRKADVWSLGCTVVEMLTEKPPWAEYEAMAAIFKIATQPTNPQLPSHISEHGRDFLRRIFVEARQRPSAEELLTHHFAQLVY
The assay can be described thus: condition: only mice treated with FPS-ZM1 1.0 mg/kg; co-IP; endogenous proteins of the hippocampus of db/db mice treated with the RAGE antagonist FPS-ZM1 (1.0 mg/kg daily, 8 weeks); immunoprecipitation and immunoblot.

Assay [3] has as its target T2, MEKK3, endogenous in mouse hippocampus (mouse (endogenous in hippocampus)). The experiment in a line: co-IP; endogenous proteins of the hippocampus of C57BL/6 mice with high fat diet and STZ-induced diabetes and of control mice; groups Con, DM, FPS-ZM1 1.0 mg/kg, corn oil; immunoprecipitation and immunoblot.
The target is the same in assay [4]. The assay can be described thus: co-IP; endogenous proteins of the hippocampus of db/db and db/m mice; groups db/m, db/db, corn oil; immunoprecipitation and immunoblot.
In assay [5] the target is receptor for advanced glycation end products (RAGE), endogenous in HEK-293T cells (human (endogenous in HEK-293T)) (UniProt Q15109). The assay can be described thus: co-IP; endogenous proteins of HEK-293T cells; groups: normal glucose 25 mM, high glucose 80 mM for 24 h, high glucose with DMSO, mannitol control; immunoprecipitation buffer 50 mM HEPES pH 7.1, 150 mM NaCl, 1% Triton X-100, 0.5% NP-40; protein A/G-agarose, 4°C; immunoblot.

Assay [6] shares this target. The experiment in a line: co-IP; endogenous proteins of HEK-293T cells in high glucose (80 mM, 24 h) treated with the RAGE antagonist FPS-ZM1 (2.5 μM); same immunoprecipitation as a1.
The target in assay [7] is Flag-RAGE wild type (LV-Flag-RAGE-wt, wild-type ctRAGE) (mouse) (UniProt Q62151). The assay can be described thus: co-IP; hippocampus of db/db mice with RAGE knock-down (LV-RAGE-shRNA) injected with LV-Flag-RAGE-wt or -mut; immunoprecipitation, immunoblot with anti-Flag and anti-MKK3.
Assay [8] addresses receptor for advanced glycation end products (RAGE), endogenous in mouse hippocampus (mouse (endogenous in hippocampus)) (UniProt Q62151). The experiment in a line: co-IP; endogenous proteins of the hippocampus of C57BL/6 mice with high fat diet and STZ-induced diabetes and of control mice; groups Con, DM, FPS-ZM1 1.0 mg/kg, corn oil; immunoprecipitation and immunoblot.
The target in assay [9] is T2, MEKK3, endogenous in mouse hippocampus (mouse (endogenous in hippocampus)). The description is as above. This is another data set of the same source.
Assay [10] has as its target receptor for advanced glycation end products (RAGE), endogenous in mouse hippocampus (mouse (endogenous in hippocampus)) (UniProt Q62151). The experiment in a line: condition: only mice treated with FPS-ZM1 1.0 mg/kg; co-IP; endogenous proteins of the hippocampus of db/db mice treated with the RAGE antagonist FPS-ZM1 (1.0 mg/kg daily, 8 weeks); immunoprecipitation and immunoblot.

Assay [11] concerns the target Flag-RAGE wild type (LV-Flag-RAGE-wt, wild-type ctRAGE) (mouse) (UniProt Q62151). The experiment in a line: co-IP; RAGE-knockdown HT22 cells transfected with LV-Flag-RAGE-wt or -mut, high glucose 50 mM for 24 h; immunoprecipitation, immunoblot with anti-Flag and anti-MKK3.
Assay [12] deals with receptor for advanced glycation end products (RAGE), endogenous in mouse hippocampus (mouse (endogenous in hippocampus)) (UniProt Q62151). The assay can be described thus: co-IP; endogenous proteins of the hippocampus of db/db and db/m mice; groups db/m, db/db, corn oil; immunoprecipitation and immunoblot.

No constants are given. Whether binding was seen depends on the method and setting. Binding seen in cells or lysates may run through a third protein. Some entries that bind do so weakly or less than the wild type.

“osmosensing scaffold protein for MEKK3 (OSM), endogenous in HEK-293T cells (from UniProt Q9BSQ5 1-444)”: in [1], the binding entry is “binds”.
Turning to “osmosensing scaffold protein for MEKK3 (OSM), endogenous in mouse hippocampus (from UniProt Q8K2Y9 1-453)”, the values for the binding entry in assay [2], in assay [3] and in assay [4] were “no binding”, “binds” and “binds”, respectively.

B1: mitogen-activated protein kinase kinase 3 (MKK3), endogenous in HEK-293T cells (enzyme, UniProt P46734 1-347)
chain: MESPASSQPASMPQSKGKSKRKKDLRISCMSKPPAPNPTPPRNLDSRTFITIGDRNFEVEADDLVTISELGRGAYGVVEKVRHAQSGTIMAVKRIRATVNSQEQKRLLMDLDINMRTVDCFYTVTFYGALFREGDVWICMELMDTSLDKFYRKVLDKNMTIPEDILGEIAVSIVRALEHLHSKLSVIHRDVKPSNVLINKEGHVKMCDFGISGYLVDSVAKTMDAGCKPYMAPERINPELNQKGYNVKSDVWSLGITMIEMAILRFPYESWGTPFQQLKQVVEEPSPQLPADRFSPEFVDFTAQCLRKNPAERMSYLELMEHPFFTLHKTKKTDIAAFVKEILGEDS
Turning to B1, the binding result in [5] is reported as “binds”; in assay [1] it was “binds”; in assay [6], “no binding (condition: cells treated with 2.5 μM FPS-ZM1)”.

B2: mitogen-activated protein kinase kinase 3 (MKK3), endogenous in mouse hippocampus and HT22 cells (enzyme, UniProt O09110 1-347)
chain: MESPAASPPASLPQTKGKSKRKKDLRISCVSKPPVSNPTPPRNLDSRTFITIGDRNFEVEADDLVTISELGRGAYGVVEKVRHAQSGTIMAVKRIRATVNTQEQKRLLMDLDINMRTVDCFYTVTFYGALFREGDVWICMELMDTSLDKFYRKVLEKNMKIPEDILGEIAVSIVRALEHLHSKLSVIHRDVKPSNVLINKEGHVKMCDFGISGYLVDSVAKTMDAGCKPYMAPERINPELNQKGYNVKSDVWSLGITMIEMAILRFPYESWGTPFQQLKQVVEEPSPQLPADQFSPEFVDFTSQCLRKNPAERMSYLELMEHPFFTLHKTKKTDIAAFVKEILGEDS
As to B2, the binding result was “binds” in assay [7]; “binds” in [8]; “binds” in assay [9]; “no binding” in assay [10]; “no binding” in assay [2]; “binds” in [11]. Also, the binding result in assay [12] and in assay [4] was “binds” in each case.
